# Test results: PubChem BioAssay AID540276 (National Center for Advancing Translational Sciences (NCATS), 2011)
# Among all 300,000 compounds or so, about 5,400 (1.8%) were called active. The inconclusive results got no clear call from the source; some entries with a clear call stand among them for comparison. The call rests on the fitted dose curve; tested in HEK293 cells. Potencies beside an inconclusive call are fits to weak or partial responses and may not hold up.
# Test: qHTS for inhibitors of binding or entry into cells for Marburg Virus
# Conditions: Marburg virus pseudotyped entry inhibition, cell reporter; activity change, negative = inhibition: at 37.8 µM (top of the series) unless noted
# On the % scale 0 is the no-effect control and ±100 the full control effect; potency means the concentration at half of the fitted maximal effect.
SMILES,Potency,"activity change, negative = inhibition"
Cc1cccc(NS(=O)(=O)c2ccc(C)c(C(=O)OCC(=O)Nc3cc(C)on3)c2)c1,"inconclusive: 3.98 µM [inhibitor, full curve, poor fit]",
COc1ccc(-c2nn(C)c(=O)c3ccccc23)cc1CNC(=O)C1CCCCC1,"inconclusive: 0.562 µM [inhibitor, full curve, poor fit]",
Cc1cccc(-n2ncc3c2CCCC3NC(=O)CC(F)(F)F)c1C (stereo not given),"inconclusive: 11.2 µM [inhibitor, partial curve, poor fit]",
CCOc1ccc(/C=C2\SC(=S)N(CCCC(=O)NCCCN3CCOCC3)C2=O)cc1,"inconclusive: 6.31 µM [inhibitor, full curve, poor fit]",
C=C1CCC[C@]2(C)C[C@H]3OC(=O)C(CNC(CC)CO)[C@H]3CC12 (stereo not given in full),inactive,
CC(C(=O)Nc1cccc(Br)c1)c1ccc([N+](=O)[O-])cc1 (stereo not given),"inconclusive: 23.1 µM [inhibitor, single point]",
COCCn1c(=NC(=O)CSCC(=O)N2CCOCC2)sc2cc(C)ccc21,inactive,
CCC(=O)N1CCN(c2ccc(NC(=O)COc3ccccc3Cl)cc2)CC1,"inconclusive: 23.1 µM [inhibitor, single point]",
Cc1cc(C)c(NC(=O)CN2C(=O)NC(CCc3ccccc3)C2=O)c(C)c1 (stereo not given),"inconclusive: 35.5 µM [inhibitor, single point]",
CC(C)c1ccc(C(=O)NC2=NCCS2)cc1,active: 7.31 µM,
COc1ccc(NC(C)=O)cc1NC(C)C(=O)Nc1ccc(S(=O)(=O)N2CCCCC2)cc1 (stereo not given),inactive,
Cc1cccc(NCCC(=O)c2ccc([N+](=O)[O-])cc2)c1C,"inconclusive: 22.4 µM [inhibitor, partial curve, poor fit]",
Cc1ccc(C(=O)c2cn(Cc3ccccc3)c3c(F)cc(F)cc3c2=O)cc1,inactive,
COc1ccc(N2CCN(c3ncnc4c3nnn4Cc3ccccc3Cl)CC2)cc1,inactive,
O=C(Nc1ccccc1)c1ccc(Cl)c(S(=O)(=O)Nc2ccccc2)c1,"inconclusive: 2.82 µM [inhibitor, partial curve, poor fit]",
CN1CCN(C(=O)c2ccc(S(=O)(=O)c3ccc(Br)cc3)cc2)CC1,"inconclusive: 10 µM [inhibitor, partial curve, poor fit]",
COC(=O)c1ccc(Cn2nc([N+](=O)[O-])c(Br)c2C)cc1,"inconclusive: 14.1 µM [inhibitor, partial curve, poor fit]",
Cc1ccc(N(CC(=O)Nc2ccc(F)c(Cl)c2)S(=O)(=O)c2c(C)noc2C)cc1,"inconclusive: 35.5 µM [inhibitor, single point]",
CC1CCCN1c1ccnc2cc(Cl)ccc12 (stereo not given),"inconclusive: 10 µM [inhibitor, partial curve, poor fit]",
COc1ccc(/C(N)=N/OC(=O)Cc2cccs2)cc1OC,"inconclusive: 7.08 µM [activator, full curve]",
Cc1cc(Oc2ccc(=O)n(C)n2)nc(SCCOc2ccccc2)n1,"inconclusive: 3.16 µM [activator, single point]",
Cc1nn(CC(O)CN2c3ccccc3Sc3ccccc32)c(C)c1Br (stereo not given),active: 11.2 µM,
O=C1C=C(NNC(=O)c2ccccc2Br)CCC1,"inconclusive: 0.562 µM [inhibitor, partial curve, poor fit]",
CCc1ccccc1NC(=O)Nc1ccc(F)cc1F,"inconclusive: 20 µM [inhibitor, partial curve, poor fit]",

SMILES,Potency,"activity change, negative = inhibition"
CCOc1ccc(N2CC(=O)Nc3ccccc3NCC2=O)cc1,"inconclusive: 0.13 µM [inhibitor, single point]",
COc1ccc(C(=O)CSC#N)cc1OC,"inconclusive: 20 µM [inhibitor, single point]",
Cc1cc(-n2c(C)cc(C(=O)CSc3nnnn3-c3ccc(Cl)cc3)c2C)no1,"inconclusive: 29.1 µM [inhibitor, single point]",
COC(=O)c1ccc2nc(NC(=O)CSCC(=O)OCC(=O)c3ccccc3)sc2c1,inactive,
COc1cccc(C2=NO[C@@H]3C(=O)N(Cc4ccccc4)C(=O)[C@H]23)c1OC,"inconclusive: 29.1 µM [inhibitor, single point]",
COc1cc(S(=O)(=O)NC(C)C)ccc1Cl,inactive,
CCc1c(C)sc(NC(=O)c2cc(-c3ccc(OC)c(OC)c3)on2)c1C#N,inactive,
CCC(=O)Nc1ccc(NC(=O)c2ccccn2)cn1,"inconclusive: 11.2 µM [inhibitor, single point]",
CC1(C(=O)NC2CCCCCCC2)CCC(=O)N1Cc1ccco1 (stereo not given),inactive,
Cc1cccc(OC(C)C(=O)N/N=C\c2ccncc2)c1 (stereo not given),inactive,
NNc1nnc2c3cc(F)ccc3n(Cc3ccccc3)c2n1,"inconclusive: 35.5 µM [inhibitor, single point]",
CN(C)S(=O)(=O)c1cccc(C(=O)OCC(=O)Nc2sccc2C(N)=O)c1,"inconclusive: 0.0041 µM [inhibitor, full curve, poor fit]",
Cc1ccccc1OCC(=O)Nc1ccc(S(=O)(=O)Nc2ccccn2)cc1,"inconclusive: 0.794 µM [inhibitor, full curve, poor fit]",
Clc1cccc(Cl)c1CSc1cc2c(nn1)-c1ccccc1CC2,"inconclusive: 29.1 µM [inhibitor, single point]",
Cn1c(=O)c2c(-c3ccc(Cl)cc3)ccnc2n(C)c1=O,inactive,
COc1ccc(CN(CCC(c2ccccc2)c2ccco2)C(=O)c2ccco2)cc1 (stereo not given),active: 10 µM,
CCOC(=O)c1c[nH]c2c3c(ccc2c1=O)CCCC3,"inconclusive: 29.1 µM [activator, partial curve, poor fit]",
Cc1ccccc1NC(=O)CSc1nc(N)c(C#N)cc1C#N,"inconclusive: 5.8 µM [inhibitor, single point]",
Cc1cc2oc(C(=O)Nc3sc4c(c3C(=O)NCC3CCCO3)CCCC4)cc(=O)c2cc1C (stereo not given),inactive,
O=C(C[n+]1ccccc1)N/N=C/c1ccc(Cl)c(Cl)c1,inactive,
Oc1ccccc1-c1cc(-c2ccc3c(c2)OCCO3)n[nH]1,"inconclusive: 10.3 µM [inhibitor, partial curve, poor fit]",
CC(=O)c1ccc(NC(=O)CN2CCCC2)cc1,"inconclusive: 22.4 µM [activator, single point]",
CN1CCN(/N=C/c2ccc(-c3ccccc3)cc2)CC1,"inconclusive: 1.26 µM [activator, partial curve, poor fit]",
COc1ccc(-n2c(SCC(=O)N3CCCCC3)nc3ccccc3c2=O)cc1,"inconclusive: 28.2 µM [activator, single point]",

# Looked up above.
# For Potency, CCOc1ccc(/C=C2\SC(=S)N(CCCC(=O)NCCCN3CCOCC3)C2=O)cc1 is entered as inconclusive: 6.31 µM [inhibitor, full curve, poor fit]
# For Potency, CCOc1ccc(N2CC(=O)Nc3ccccc3NCC2=O)cc1 is entered as inconclusive: 0.13 µM [inhibitor, single point]
# For Potency, Cc1cccc(NS(=O)(=O)c2ccc(C)c(C(=O)OCC(=O)Nc3cc(C)on3)c2)c1 is entered as inconclusive: 3.98 µM [inhibitor, full curve, poor fit]

# (listing goes on)

SMILES,Potency,"activity change, negative = inhibition"
COc1cccc(CN2CC(C(=O)NCc3ccc(C)c(F)c3)CCC2=O)c1 (stereo not given),inactive,
Cc1cc(=O)oc2cc(OCC(=O)N3CCOCC3)c(Cl)cc12,"inconclusive: 0.708 µM [inhibitor, full curve]",
CCS(=O)(=O)NCCc1cc2cc(C)c(C)cc2[nH]c1=O,"inconclusive: 12.6 µM [activator, single point]",
Cc1cccc(NC(=O)Cn2c(O)c(N=NC(N)=S)c3ccccc32)c1,"inconclusive: 11.2 µM [inhibitor, partial curve, poor fit]",
O=[N+]([O-])c1ccc(/C=N/Nc2ncc(-c3ccccc3)cn2)cc1,inactive,
CC1(C(=O)OCC(=O)Nc2ccc3ccccc3c2)CC1(Cl)Cl (stereo not given),inactive,
Cc1csc(NC(=O)C2CCCN(S(=O)(=O)c3ccc(Br)s3)C2)n1 (stereo not given),"inconclusive: 20 µM [inhibitor, single point]",
O=C(NCc1cccnc1)c1ccc(S(=O)(=O)Nc2ccccc2)cc1,inactive,
CCS(=O)(=O)N1CCc2cc(C(=O)Nc3cc(C)cc(C)c3)ccc21,inactive,
CC(=O)N1CCN(CC(=O)Nc2ccc(Cl)c(S(=O)(=O)N(C)C)c2)CC1,,inconclusive: 7.9% [activator]
Cc1ccc(NC(=O)c2ccc(OC(=O)c3ccco3)cc2)cc1,inactive,
COc1cccc(Cc2n[nH]c(=S)n2Cc2ccco2)c1,"inconclusive: 1.26 µM [inhibitor, full curve]",
COC(=O)/C(=C\c1ccc2c(c1)c1ccccc1n2C)NC(=O)c1ccccc1,"inconclusive: 0.517 µM [inhibitor, partial curve, poor fit]",
COCCNC(=O)c1cc(-c2cccc(Cl)c2)on1,"inconclusive: 11.2 µM [activator, partial curve, poor fit]",
COc1ccc(OC)c(-n2nnnc2SCC(=O)Nc2ccc3c(c2)OCCO3)c1,inactive,
O=C(CN1C(=O)COc2ccc(Cl)cc21)Nc1cccc(C(=O)O)c1,"inconclusive: 11.2 µM [inhibitor, single point]",
Clc1ccccc1/C=N/NC1=Nc2cccc3cccc1c23,"inconclusive: 0.891 µM [activator, full curve, poor fit]",
FC(F)(F)c1cccc(-c2nc(-c3ccncc3)no2)c1,"inconclusive: 6.31 µM [inhibitor, single point]",
CCOc1ccc(C(C(=O)NC(C)(C)C)N(CCOC)C(=O)CCC(=O)Nc2nccs2)cc1 (stereo not given),"inconclusive: 4.47 µM [inhibitor, partial curve, poor fit]",
Cc1cc(NC(=O)COC(=O)CNC(=O)c2cccs2)c([N+](=O)[O-])cc1C,inactive,
CCOC(=O)c1oc2cc(O)c(CC)cc2c(=O)c1-c1cscn1,inactive,
CSc1cccc(N2CC(C(=O)Nc3ccccc3N3CCCC3)CC2=O)c1 (stereo not given),"inconclusive: 0.0891 µM [inhibitor, full curve, poor fit]",
